Values of other authors in patent US11723589B2 (The General Hospital Corporation, priority 2010, dated 2023).
At least one compound was matched to its structure with a doubt left.

Experiments:
human volunteers [1] = conditions: cited from earlier work
human volunteers [2] = conditions: cited from earlier work; remark: listed apart in the source

CNC(=O)Oc1ccc2c(c1)[C@]1(C)CCN(C)[C@@H]1N2C [physostigmine (PHY), physostigmine]
subjects with reversal of propofol-induced loss of consciousness (human volunteers [1]): 9 of 11
subjects with reversal of sevoflurane-induced loss of consciousness (human volunteers [2]): 5 of 8
